Entries after “also recorded” stand apart in the source; their conditions may differ. At least one peptide structure holds a part that was inferred or is arguable (an end, a ring closure or a residue). Peptide text beside a SMILES is read from it.
Assays:
Assay type in all cases: cell-based
[1] = system: SARS-CoV-2 variant B.1.1.28.1 (gamma)
[2] = system: SARS-CoV-2 variant B.1.617.2 (delta)
[3] = system: SARS-CoV-2 variant B.1.1.7 (alpha)
[4] = system: SARS-CoV-2 variant B.1.617.1 (kappa)
[5] = system: SARS-CoV-2 variant B.1.351 (beta)

CC[C@H](C)[C@H](NC(=O)[C@H](CCCCN)NC(=O)[C@H](CCCCN)NC(=O)[C@H](CC(C)C)NC(=O)[C@H](CCCNC(=N)N)NC(=O)[C@H](CCCCN)NC(=O)[C@H](CCCNC(=N)N)NC(=O)[C@@H](NC(=O)[C@H](CCCCN)NC(=O)[C@H](CCCCN)NC(=O)[C@H](CCCNC(=N)N)NC(=O)[C@H](CC(C)C)NC(=O)[C@H](CCCNC(=N)N)NC(=O)[C@H](CCCNC(=N)N)NC(=O)[C@H](Cc1ccccc1)NC(=O)[C@H](CCCNC(=N)N)NC(=O)CNC(=O)[C@@H](N)C(C)C)[C@@H](C)O)C(=O)NCC(=O)N[C@@H](CCCCN)C(=O)N[C@H](C(=O)N[C@@H](CC(C)C)C(=O)N[C@@H](CCCCN)C(=O)N[C@@H](Cc1c[nH]c2ccccc12)C(=O)N[C@H](C(=O)N1CCC[C@H]1C(=O)N1CCC[C@H]1C(=O)N[C@H](C(=O)N[C@H](C(=O)NCC(=O)N[C@@H](CO)C(=O)N[C@H](C(=O)N1CCC[C@H]1C(=O)N[C@@H](CC(C)C)C(=O)NCC(=O)N[C@@H](CO)C(=O)NCC(=O)O)[C@@H](C)CC)C(C)C)[C@@H](C)CC)[C@@H](C)CC)C(C)C [Yongshi] (H-VGRFRRLRKKTRKRLKKIGKVLKWIPPIVGSIPLGSG-OH)
inhibition of SARS-CoV-2 gamma variant [1]: inhibits drifted variants; also recorded: maintaining inhibitory activity; also recorded: inhibited all the variants tested; also recorded: retains inhibitory activity
inhibition of SARS-CoV-2 delta variant [2]: inhibits drifted variants; also recorded: maintaining inhibitory activity; also recorded: inhibited all the variants tested; also recorded: retains inhibitory activity
inhibition of SARS-CoV-2 alpha variant [3]: inhibits drifted variants; also recorded: maintaining inhibitory activity; also recorded: inhibited all the variants tested; also recorded: retains inhibitory activity
inhibition of SARS-CoV-2 kappa variant [4]: maintaining inhibitory activity; also recorded: inhibited all the variants tested; also recorded: retains inhibitory activity
inhibition of SARS-CoV-2 beta variant [5]: inhibits drifted variants; also recorded: maintaining inhibitory activity; also recorded: inhibited all the variants tested; also recorded: retains inhibitory activity

From patent US20250002548A1, “Wild Boar Cathelicidin Peptide Variants and Vectors Encoding the Same for Uses in Managing Coronavirus Infections” (Emory University, priority 2021, published 2025)
